# According to US20190203210A1:
# Amino acid sequences for entries named in this document (tags omitted).
# UniProt Q7Z6Z7: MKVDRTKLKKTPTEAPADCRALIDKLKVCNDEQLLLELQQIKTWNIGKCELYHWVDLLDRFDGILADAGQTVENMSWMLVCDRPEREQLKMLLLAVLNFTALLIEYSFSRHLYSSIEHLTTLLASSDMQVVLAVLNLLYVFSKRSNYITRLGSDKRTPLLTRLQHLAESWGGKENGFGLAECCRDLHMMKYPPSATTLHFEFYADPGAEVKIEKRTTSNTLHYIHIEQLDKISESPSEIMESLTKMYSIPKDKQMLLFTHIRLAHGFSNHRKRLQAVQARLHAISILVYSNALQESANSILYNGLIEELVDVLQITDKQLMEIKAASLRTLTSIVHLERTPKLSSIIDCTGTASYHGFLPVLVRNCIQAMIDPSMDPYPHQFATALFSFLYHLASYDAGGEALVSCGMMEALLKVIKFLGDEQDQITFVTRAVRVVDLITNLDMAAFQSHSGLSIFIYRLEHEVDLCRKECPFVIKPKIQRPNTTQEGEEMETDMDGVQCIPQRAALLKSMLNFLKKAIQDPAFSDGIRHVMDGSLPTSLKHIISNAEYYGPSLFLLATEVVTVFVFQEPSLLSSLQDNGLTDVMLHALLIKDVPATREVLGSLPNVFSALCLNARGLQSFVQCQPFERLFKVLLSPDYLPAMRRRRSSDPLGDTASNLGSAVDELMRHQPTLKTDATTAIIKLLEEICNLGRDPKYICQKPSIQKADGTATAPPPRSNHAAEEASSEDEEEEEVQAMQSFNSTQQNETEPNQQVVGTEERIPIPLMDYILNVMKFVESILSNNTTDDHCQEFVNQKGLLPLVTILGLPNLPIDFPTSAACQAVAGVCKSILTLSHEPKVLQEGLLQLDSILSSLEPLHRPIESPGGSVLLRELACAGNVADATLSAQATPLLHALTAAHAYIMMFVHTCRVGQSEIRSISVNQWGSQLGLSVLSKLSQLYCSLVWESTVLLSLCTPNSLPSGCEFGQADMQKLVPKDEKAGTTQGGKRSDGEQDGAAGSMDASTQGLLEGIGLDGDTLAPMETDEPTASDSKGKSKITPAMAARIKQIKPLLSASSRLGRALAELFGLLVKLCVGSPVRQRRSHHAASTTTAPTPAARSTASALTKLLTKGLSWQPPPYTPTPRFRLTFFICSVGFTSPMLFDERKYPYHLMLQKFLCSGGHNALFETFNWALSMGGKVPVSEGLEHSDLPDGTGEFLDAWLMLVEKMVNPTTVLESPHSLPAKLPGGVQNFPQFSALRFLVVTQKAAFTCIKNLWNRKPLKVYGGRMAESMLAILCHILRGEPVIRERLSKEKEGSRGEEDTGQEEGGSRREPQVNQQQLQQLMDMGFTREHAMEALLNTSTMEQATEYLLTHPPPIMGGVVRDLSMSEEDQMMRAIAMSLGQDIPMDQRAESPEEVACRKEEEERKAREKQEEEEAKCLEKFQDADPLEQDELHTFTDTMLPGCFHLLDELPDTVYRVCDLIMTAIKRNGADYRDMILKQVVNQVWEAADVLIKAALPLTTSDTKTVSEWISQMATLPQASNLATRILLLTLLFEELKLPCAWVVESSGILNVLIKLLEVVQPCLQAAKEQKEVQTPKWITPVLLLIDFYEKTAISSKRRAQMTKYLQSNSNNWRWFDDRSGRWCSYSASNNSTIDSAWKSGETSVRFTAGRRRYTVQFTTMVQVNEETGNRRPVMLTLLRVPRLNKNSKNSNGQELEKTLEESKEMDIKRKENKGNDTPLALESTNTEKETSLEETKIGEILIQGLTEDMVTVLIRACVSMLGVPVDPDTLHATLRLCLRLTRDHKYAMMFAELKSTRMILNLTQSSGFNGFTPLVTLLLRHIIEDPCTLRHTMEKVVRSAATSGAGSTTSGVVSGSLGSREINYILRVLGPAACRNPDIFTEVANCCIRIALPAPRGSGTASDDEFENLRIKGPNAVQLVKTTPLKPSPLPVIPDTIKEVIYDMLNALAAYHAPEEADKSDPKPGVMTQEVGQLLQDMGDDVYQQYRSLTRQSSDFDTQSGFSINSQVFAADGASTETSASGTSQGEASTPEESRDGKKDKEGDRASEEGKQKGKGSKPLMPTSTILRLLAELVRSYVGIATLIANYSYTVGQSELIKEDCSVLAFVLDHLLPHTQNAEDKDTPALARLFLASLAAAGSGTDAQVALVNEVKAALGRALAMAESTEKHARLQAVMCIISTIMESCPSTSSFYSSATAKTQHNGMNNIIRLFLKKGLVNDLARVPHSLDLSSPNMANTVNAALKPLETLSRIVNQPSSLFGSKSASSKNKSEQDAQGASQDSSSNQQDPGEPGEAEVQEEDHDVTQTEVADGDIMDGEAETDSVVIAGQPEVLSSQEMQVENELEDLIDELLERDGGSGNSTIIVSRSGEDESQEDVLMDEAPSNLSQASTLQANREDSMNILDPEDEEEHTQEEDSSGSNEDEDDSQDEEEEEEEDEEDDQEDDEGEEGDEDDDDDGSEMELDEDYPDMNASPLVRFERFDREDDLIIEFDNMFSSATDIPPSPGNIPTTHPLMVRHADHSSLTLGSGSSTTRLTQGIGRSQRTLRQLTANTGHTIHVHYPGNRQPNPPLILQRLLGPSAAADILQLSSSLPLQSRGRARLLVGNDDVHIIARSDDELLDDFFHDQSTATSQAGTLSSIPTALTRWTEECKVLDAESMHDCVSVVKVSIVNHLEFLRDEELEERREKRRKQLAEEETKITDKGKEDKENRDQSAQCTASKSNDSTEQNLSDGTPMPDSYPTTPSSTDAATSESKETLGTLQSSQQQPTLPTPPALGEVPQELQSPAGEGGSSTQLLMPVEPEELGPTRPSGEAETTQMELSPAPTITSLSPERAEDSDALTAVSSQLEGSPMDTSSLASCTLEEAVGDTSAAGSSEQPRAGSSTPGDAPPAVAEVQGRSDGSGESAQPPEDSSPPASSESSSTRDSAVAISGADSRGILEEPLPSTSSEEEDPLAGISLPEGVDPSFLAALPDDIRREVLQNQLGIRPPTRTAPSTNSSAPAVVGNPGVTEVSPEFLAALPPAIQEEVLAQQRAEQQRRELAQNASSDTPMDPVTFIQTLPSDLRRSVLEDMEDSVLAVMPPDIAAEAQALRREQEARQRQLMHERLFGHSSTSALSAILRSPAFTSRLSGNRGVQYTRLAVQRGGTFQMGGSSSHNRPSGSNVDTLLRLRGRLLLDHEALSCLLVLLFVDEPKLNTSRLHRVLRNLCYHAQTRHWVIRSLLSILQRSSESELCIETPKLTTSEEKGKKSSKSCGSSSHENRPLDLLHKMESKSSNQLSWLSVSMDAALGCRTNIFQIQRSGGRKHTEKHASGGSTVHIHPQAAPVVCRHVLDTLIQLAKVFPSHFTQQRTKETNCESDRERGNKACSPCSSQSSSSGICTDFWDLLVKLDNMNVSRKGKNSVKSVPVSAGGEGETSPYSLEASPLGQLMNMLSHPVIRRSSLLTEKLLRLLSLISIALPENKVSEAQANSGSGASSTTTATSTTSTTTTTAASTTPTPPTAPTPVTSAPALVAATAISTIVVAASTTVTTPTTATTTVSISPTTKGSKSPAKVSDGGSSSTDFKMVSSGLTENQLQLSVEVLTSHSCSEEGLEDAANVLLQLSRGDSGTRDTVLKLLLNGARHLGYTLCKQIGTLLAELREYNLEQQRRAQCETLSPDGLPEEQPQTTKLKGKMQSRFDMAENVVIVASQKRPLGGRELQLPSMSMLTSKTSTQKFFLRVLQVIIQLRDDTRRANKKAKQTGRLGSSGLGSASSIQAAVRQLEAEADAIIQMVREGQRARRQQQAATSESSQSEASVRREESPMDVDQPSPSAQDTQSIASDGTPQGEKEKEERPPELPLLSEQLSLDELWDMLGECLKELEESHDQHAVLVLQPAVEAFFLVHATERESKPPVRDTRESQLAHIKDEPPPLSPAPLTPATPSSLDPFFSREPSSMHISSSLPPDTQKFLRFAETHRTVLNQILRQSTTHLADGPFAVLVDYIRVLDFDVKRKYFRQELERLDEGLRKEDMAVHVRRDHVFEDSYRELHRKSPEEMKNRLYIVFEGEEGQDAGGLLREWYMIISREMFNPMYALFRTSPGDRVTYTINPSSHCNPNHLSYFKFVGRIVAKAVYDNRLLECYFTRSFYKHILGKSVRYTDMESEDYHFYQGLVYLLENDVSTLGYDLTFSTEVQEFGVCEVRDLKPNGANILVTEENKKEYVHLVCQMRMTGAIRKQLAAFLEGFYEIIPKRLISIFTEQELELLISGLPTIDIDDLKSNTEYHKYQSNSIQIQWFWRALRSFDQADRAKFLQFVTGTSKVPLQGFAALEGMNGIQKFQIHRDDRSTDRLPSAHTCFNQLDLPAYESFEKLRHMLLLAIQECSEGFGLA
# No constants are given. Whether binding was seen depends on the method and setting. Binding seen in cells or lysates may run through a third protein. A yes stands for co-enrichment or nearness to the bait. Other partners may have been found. Tags and fused reporters may be left off the sequences shown.
# Target: T1, FLAG-HA-Atoh1 (UniProt Q92858)
# T1 sequence (looked up): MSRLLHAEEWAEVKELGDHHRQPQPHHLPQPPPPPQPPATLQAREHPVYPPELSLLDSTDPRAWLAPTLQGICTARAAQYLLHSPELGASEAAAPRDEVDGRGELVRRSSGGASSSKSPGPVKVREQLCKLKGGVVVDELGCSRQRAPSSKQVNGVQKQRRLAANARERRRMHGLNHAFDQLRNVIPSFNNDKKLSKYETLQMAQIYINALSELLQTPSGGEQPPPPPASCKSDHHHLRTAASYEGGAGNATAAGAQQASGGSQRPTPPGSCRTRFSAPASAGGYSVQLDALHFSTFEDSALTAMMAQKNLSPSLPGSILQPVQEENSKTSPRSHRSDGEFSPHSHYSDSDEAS
# Assay: IP, gel band at 450 kDa, mass spectrometry
substance,measurement,value
"HECT, UBA and WWE domain containing 1 (Huwe1) protein (from UniProt Q7Z6Z7 1-4374) (enzyme)",binding,binds
